According to PubChem BioAssay AID1508600 (Functional Genomics Laboratory (NCATS/FGL), 2020):
Screen size: about 53,000 sequences; about 3,700 (7%) were called active.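 Rule for the calls: active = gene knockdowns whose robust z-score for IL-1 alpha signal is at least 2 or at most -2, so actives lie on both sides; inactive = the rest.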 Some of the results follow.

Assay: Components of the Cytosolic LPS Sensing Pathway: Gene Identification via Genome-wide siRNA Screen;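 note: robust z of the log signal after scaling to non-targeting control siRNA wells of the plate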
Conditions: RAW264.7 macrophages, IL-1a HTRF, actives lie on both sides, screened at 100 nM (by protocol), cells primed 5 h with Pam3CSK4 first
Procedure, shortened: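 RAW264.7; siRNA 100 nM final, RNAiMAX, 48h 37 degrees C; Pam3CSK4 5 h; LipidA + TransIT-TKO 24 h; IL-1a HTRF; CellTiter-Glo viability; robust z vs negative-control median.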

Which z-score does the source give for GGGUUGUGAAGAGAUUAAATT against Il1rl2 here?
The z-score was inactive: 0.582.

For GCCAAGGUUAUCAUGAAUGTT against F13a1, which z-score is on record?
Its z-score is inactive: -0.141.

With GGAUGUUUCAGACAAGCUCTT against Olfr156 as the sequence, how does the z-score read?
The z-score was inactive: -0.578.

With CGAGAACAGUUUGUACAAGTT against Serpinh1 as the sequence, how does the z-score read?
The z-score was inactive: 0.0782.

With GGACUGUUAGCUCGCUUUGTT against Pex2 as the sequence, how does the z-score read?
Its z-score is inactive: -1.02.

Which z-score does the source give for GGAGAUGAAGUCUAUAUCATT against C1ql3 here?
The z-score was inactive: -0.222.

For GGAGGACAUAUAGCUGAUUTT against Ctdsp2, which z-score is on record?
Its z-score is inactive: 0.302.

For GGCUGUGUUGUCGAUUUCCTT against Nkain3, which z-score is on record?
The z-score was inactive: 0.351.

With “GGCCAAGAUAAAAAAGGCCTT against 2610002M06Rik” as the sequence, how does the z-score read?
The z-score was inactive: -0.151.

Which z-score does the source give for GCUCUUCAGAGUGAUCCAATT against Acmsd here?
Its z-score is inactive: -1.74.

For GGACUGAUCAUCUAUGACATT against Hectd4, which z-score is on record?
Its z-score is inactive: -0.455.

For GGACCUUCCGUGAGAUUAUTT against Mapk15, which z-score is on record?
The z-score was inactive: 0.405.

With “GGAGGUUUUGGAAGAAGAATT against 1700012B09Rik” as the sequence, how does the z-score read?
The z-score was inactive: 1.54.

With GGAGGUGUAUGUAAUACCATT against Efs as the sequence, how does the z-score read?
The z-score was inactive: 0.184.

For GGACAACUGACUCCAUCAATT against Pla2g6, which z-score is on record?
The z-score was inactive: -0.536.

With GGCCAAAUGAAGUCAAAAGTT against Srsf12 as the sequence, how does the z-score read?
Its z-score is inactive: -0.212.

Which z-score does the source give for GGAGACAUUGGAGUAUGUCTT against Cst11 here?
The z-score was inactive: -0.209.

Which z-score does the source give for CGUACUUGUUUGAUUGAUCTT against Usp13 here?
The z-score was inactive: 0.188.

Which z-score does the source give for GGGAGAGAUCCUCAACAGGTT against Cdk5rap1 here?
The z-score was inactive: -0.581.

For GGCAUAGAGUACUUGCAUUTT against Camkk2, which z-score is on record?
The z-score was inactive: 0.424.

With GGAUCUUCCUCAUCACCCUTT against Ube4a as the sequence, how does the z-score read?
Its z-score is inactive: 0.657.

Which z-score does the source give for GGAAAAGGAAGAUUCUUGATT against Znrd1 here?
The z-score was inactive: 0.675.

For “GGUUCGGUAUUCUGAUACATT against 1700028K03Rik”, which z-score is on record?
Its z-score is inactive: -0.385.

For CGAUGACAUCGUGUUUGAGTT against Arrb2, which z-score is on record?
Its z-score is inactive: -0.0108.

With GGUCAUCCUUCUAUUCUCUTT against Olfr648 as the sequence, how does the z-score read?
Its z-score is active: -2.01.

For GGAGUCAGUAAAGAUCCUCTT against Tgif2, which z-score is on record?
Its z-score is inactive: 1.27.

With GGAAUGAGUCCUCAAUUAUTT against Car1 as the sequence, how does the z-score read?
Its z-score is inactive: -0.283.

Which z-score does the source give for GCACAGCUAACCCUGUUAGTT against Isca1 here?
Its z-score is inactive: -0.00755.

For GGCUUGACAUCUAGGGACATT against Dbp, which z-score is on record?
Its z-score is inactive: 0.989.

With GGAUCGGCUAGCUUUGAGCTT against Timm29 as the sequence, how does the z-score read?
The z-score was inactive: 1.36.

Which z-score does the source give for GGAUGCAAUGACCCAAUUUTT against Ecm1 here?
The z-score was inactive: 0.616.

With GGGUUACCGUAAGCUGUUGTT against Uts2r as the sequence, how does the z-score read?
Its z-score is inactive: 0.0246.

For GCUGACAGUAGGAAACUAATT against Dmp1, which z-score is on record?
The z-score was inactive: -0.348.

With CCUAUGCUAUGUAGUUUAATT against Adam21 as the sequence, how does the z-score read?
The z-score was active: 5.58.

Which z-score does the source give for GCGAAUGGAAAAUGAAGAUTT against Marf1 here?
The z-score was inactive: 0.839.

Which z-score does the source give for GGACAUUGACCUAAGCCCUTT against Pcnx here?
The z-score was inactive: -1.97.

For GGAGAUGCUGUUCUUUCCGTT against Casc3, which z-score is on record?
The z-score was inactive: -1.18.

For CGUACUCUGCCAAUGCUUCTT against Sec24b, which z-score is on record?
Its z-score is inactive: -1.22.

With GGUUUACUGUGAAAAAAGATT against Morc2b as the sequence, how does the z-score read?
The z-score was inactive: 0.0774.

Which z-score does the source give for GGAGAUCUACAUGACCUUCTT against Rgs10 here?
Its z-score is inactive: 0.564.

With GGCGAUGAUUAUAAGAUUATT against Copa as the sequence, how does the z-score read?
The z-score was inactive: 1.28.

For CCAGUGGUAUGUGUGCAACTT against Mettl9, which z-score is on record?
Its z-score is inactive: 1.04.

For GGAACAUUCUAGAAUCUGUTT against Rps6kb2, which z-score is on record?
Its z-score is inactive: 0.986.

For GCCCACCUGUGCAAUCAUATT against Arl4a, which z-score is on record?
The z-score was inactive: 0.792.

For GGGACUUGUUGCUUAGCAATT against Ppip5k2, which z-score is on record?
The z-score was inactive: -0.552.

With GGUUGUUACCUUACUGUACTT against Olfr532 as the sequence, how does the z-score read?
Its z-score is inactive: 0.952.

Which z-score does the source give for GGCUGCCUUCAUCUUUUCUTT against Fth1 here?
Its z-score is inactive: 0.873.

Which z-score does the source give for GAUCUGUUACUCUUCUACUTT against Olfr1270 here?
Its z-score is inactive: 0.252.

Which z-score does the source give for CCGUUUACGGCCACUAACUTT against Phkg2 here?
Its z-score is active: 3.68.

For GGGAAACCGAGUCAAGAAGTT against Fgf11, which z-score is on record?
Its z-score is inactive: 0.825.

Which z-score does the source give for GGACAUCAACUAUGCCUCUTT against Kif1a here?
The z-score was inactive: 0.707.

Which z-score does the source give for GGUCUUCAGCACCUUUGAATT against Ccl2 here?
Its z-score is inactive: -0.903.

Which z-score does the source give for GGCACACAAUUUUCACUGATT against Pcdhb9 here?
Its z-score is inactive: 0.315.

For GCUACUGUCAAGUAUGGAATT against Psmg1, which z-score is on record?
Its z-score is inactive: 0.0492.
